Among the data in PubChem BioAssay AID248 (DTP/NCI, 2004) are survivor count and T/C values, retold here.

The list is a part of this screen's results and no random one: it gathers tests that were run many times, whatever their T/C, doses with no T/C, and many T/C values between a quarter and a half above the control. Other doses and runs of a compound stand elsewhere. T/C gives the treated animals as a percentage of the vehicle group. Some entries give survivors of the animals treated and no T/C: the source holds a T/C of zero for them, seemingly a mark for toxic or unscored doses. Some survivor counts are full or nearly so, which does not show that the dose was tolerated: the source hardly ever lists a survival T/C far under the control, and the zero likely stands for such cases as well. Survivors were counted at the toxicity check, usually on the fifth day, unless a day is given; later deaths do not show. Schedule codes are those of the source, read here as Q, the interval in days (D) or hours (H), X, the number of doses. Some entries were tested several times; the results are listed from low to high. Some schedule codes hold Z or #, which are not explained here. For survival time, this PubChem deposit counts one and a half times the control or more as active, and values a quarter to a half above the control carry no call in these data; other NCI protocols may use other cut-offs. Counts like (3×) stand for listed records that agree.

For this assay, the system named is L1210 leukemia ip in BDF1 mice, survival T/C. Description: NCI In Vivo Anticancer Drug Screen. Data for tumor model L1210 Leukemia (intraperitoneal) in B6D2F1 (BDF1) mice. The note with it: T/C endpoint: mean survival time, higher T/C = longer survival.
Where [1] appears, read: dose: 150.0 mg/kg/injection, schedule: Q04DX003 (ip), vehicle: saline.
[2] abbreviates: dose: 200.0 mg/kg/injection, schedule: Q01DX009 (ip), vehicle: saline with Tween-80.
The mark [3] stands for this setting: dose: 100.0 mg/kg/injection, schedule: Q01DX009 (ip), vehicle: saline with Tween-80.
The mark [4] stands for this setting: dose: 400.0 mg/kg/injection, schedule: Q04DX003 (ip), vehicle: saline with Tween-80.
Setting [5] is: dose: 100.0 mg/kg/injection, schedule: Q01DX009 (ip), vehicle: Klucel (hydroxypropylcellulose) (HPC).
[6] abbreviates: dose: 200.0 mg/kg/injection, schedule: Q01DX009 (ip), vehicle: saline.

As to `CN(C)CCOC(=O)c1cc(CCBr)cc(CCBr)c1`, the survivor count is, setting by setting: (dose: 20.0 mg/kg/injection, schedule: Q01DX009 (ip), vehicle: Klucel (hydroxypropylcellulose) (HPC)) 1 of 6; (dose: 40.0 mg/kg/injection, schedule: Q01DX009 (ip), vehicle: Klucel (hydroxypropylcellulose) (HPC)) 0 of 6; (dose: 87.5 mg/kg/injection, schedule: Q01DX009 (ip), vehicle: saline) 0 of 6; (dose: 175.0 mg/kg/injection, schedule: Q01DX009 (ip), vehicle: saline) 0 of 6; (dose: 350.0 mg/kg/injection, schedule: Q01DX009 (ip), vehicle: saline) 0 of 6.

In the case of `CCCCCCCCCCCCCC(=O)[O][Sn]([CH2]CCC)([CH2]CCC)[O]C(=O)CCCCCCCCCCCCC`, the survivor count runs as follows: (dose: 25.0 mg/kg/injection, schedule: Q04DX003 (ip), vehicle: other) 1 of 6; (dose: 100.0 mg/kg/injection, schedule: Q04DX003 (ip), vehicle: other) 2 of 6; (dose: 200.0 mg/kg/injection, schedule: Q04DX003 (ip), vehicle: other) 0 of 6; (dose: 400.0 mg/kg/injection, schedule: Q04DX003 (ip), vehicle: other) 1 of 6.

In the case of `NCCC(c1ccccc1)c1ccccc1`, the survivor count (dose: 150.0 mg/kg/injection, schedule: Q01DX001 (ip), vehicle: carboxymethylcellulose (CMC)) is 1 of 6 and the survivor count (dose: 300.0 mg/kg/injection, schedule: Q01DX001 (ip), vehicle: carboxymethylcellulose (CMC)) is 0 of 6.

In the case of `C=CCn1c2ccccc2c2c(C)c3cnccc3c(C)c21`, the T/C is, setting by setting: (dose: 18.7 mg/kg/injection, schedule: Q01DX009 (ip), vehicle: saline with Tween-80) 128 % of control; (dose: 37.5 mg/kg/injection, schedule: Q01DX009 (ip), vehicle: saline with Tween-80) 145 % of control; (dose: 75.0 mg/kg/injection, schedule: Q04DX003 (ip), vehicle: saline with Tween-80) 135 % of control; under setting [1], 128 % of control. Besides, the survivor count under setting [2] is on record as 3 of 6.

For `CC(=O)Nc1nc(C=O)cc(=O)[nH]1`, under “dose: 200.0 mg/kg/injection, schedule: Q01DX001 (ip), vehicle: other”, the survivor count is listed as 4 of 4.

As for `CCOC(=O)CNN`, the survivor count (dose: 32.0 mg/kg/injection, schedule: Q01DX009 (ip), vehicle: saline) is reported as 4 of 6 and the survivor count (dose: 224.0 mg/kg/injection, schedule: Q01DX001 (ip), vehicle: saline) is given as 0 of 6.

On to `Cc1cc(C)c(NC(=O)C(C)(C)C)c(C)c1`, for which the survivor count (dose: 200.0 mg/kg/injection, schedule: Q01DX009 (ip), vehicle: Klucel (hydroxypropylcellulose) (HPC)) was 6 of 6.

On to `O=C(O)C1CCCCC1C(=O)Nc1cccc(C(F)(F)F)c1` (stereo not given), for which the survivor count is 5 of 6 under setting [3], 3 of 6 under setting [2] and 4 of 6 under setting [4].

Turning to `CS(=O)(=O)CCCl`, the survivor count (dose: 400.0 mg/kg/injection, schedule: Q01DX009 (ip), vehicle: carboxymethylcellulose (CMC)) was 0 of 3 and 0 of 6.

With `Cc1cccc2c(Nc3ccc(NS(C)(=O)=O)cc3)c3ccc([N+](=O)[O-])cc3nc12`, the survivor count was 6 of 6 (dose: 37.5 mg/kg/injection, schedule: Q01DX009 (ip), vehicle: saline); 6 of 6 (dose: 38.0 mg/kg/injection, schedule: Q01DX009 (ip), vehicle: Klucel (hydroxypropylcellulose) (HPC)); 6 of 6 (dose: 75.0 mg/kg/injection, schedule: Q01DX009 (ip), vehicle: saline); 5 of 6 (dose: 150.0 mg/kg/injection, schedule: Q01DX009 (ip), vehicle: saline); 3 of 6 (dose: 300.0 mg/kg/injection, schedule: Q01DX009 (ip), vehicle: saline); 2 of 6 (dose: 600.0 mg/kg/injection, schedule: Q01DX001 (ip), vehicle: saline). Further, the T/C by setting is: (dose: 37.5 mg/kg/injection, schedule: Q04DX003 (ip), vehicle: saline) 133 % of control; (dose: 75.0 mg/kg/injection, schedule: Q04DX003 (ip), vehicle: saline) 131 % of control; under setting [1], 135 % of control; (dose: 300.0 mg/kg/injection, schedule: Q04DX003 (ip), vehicle: saline) 129 % of control.

As for `O=C(N/N=C/C1CC2C=CC1C2)c1ccncc1` (stereo not given), the survivor count under setting [2] is given as 2 of 6 and the survivor count (dose: 400.0 mg/kg/injection, schedule: Q01DX009 (ip), vehicle: saline with Tween-80) is on record as 0 of 6.

Consider `CCOC(=O)N(OCc1ccccc1)P(=O)(N1CC1(C)C)N1CC1(C)C` (stereo not given), for which the survivor count (dose: 400.0 mg/kg/injection, schedule: Q04DX002 (ip), vehicle: saline) is listed as 0 of 3.

With `CCOc1ccc(NC(=O)CCCCCCCCC(=O)Nc2ccc(OCC)cc2)cc1`, the T/C under setting [3] is 86, 87 (2×), 94 % of control. Under setting [2], the T/C is on record as 91, 97, 98 % of control and the survivor count is 3 of 3.

In the case of `CSCOC1C(COC(c2ccccc2)(c2ccccc2)c2ccccc2)OC(OCc2ccccc2)C(NC(C)=O)C1OCc1ccccc1` (stereo not given), the survivor count (dose: 200.0 mg/kg/injection, schedule: Q01DX001 (ip), vehicle: saline with Tween-80) was 3 of 3.

With `NC(=S)N/N=C(\c1ccccc1)c1cccc2ccccc12`, the survivor count under setting [5] was 0 of 6; the survivor count (dose: 200.0 mg/kg/injection, schedule: Q04DX002 (ip), vehicle: Klucel (hydroxypropylcellulose) (HPC)) is 1 of 3; the survivor count (dose: 400.0 mg/kg/injection, schedule: Q04DX002 (ip), vehicle: Klucel (hydroxypropylcellulose) (HPC)) is 0 of 3.

`O=C(NO)c1ccccc1O`: the survivor count (dose: 800.0 mg/kg/injection, schedule: Q01DX009 (ip), vehicle: Klucel (hydroxypropylcellulose) (HPC)) is 5 of 8.

For `C=CCNc1ncnc2c1cnn2C`, the survivor count under setting [6] was 4 of 6.

Take `Oc1c(Cl)cc(Cl)cc1/C=N/N1CCN(/N=C/c2cc(Cl)cc(Cl)c2O)CC1`: the survivor count (dose: 400.0 mg/kg/injection, schedule: Q01DX001 (ip), vehicle: saline) is 4 of 4.

Turning to `O=P1(N(CCF)CCCl)NCCCO1` (stereo not given), the survivor count is reported as 1 of 6 (dose: 100.0 mg/kg/injection, schedule: Q01DX Z (ip), vehicle: other) and 0 of 6 (dose: 300.0 mg/kg/injection, schedule: Q01DX Z (ip), vehicle: other).

For `CCCCCCCCCCCCCCCCC1=NCCN1`, the survivor count is reported as 6 of 6 (dose: 10.0 mg/kg/injection, schedule: Q04DX003 (ip), vehicle: saline); 2 of 6 (dose: 75.0 mg/kg/injection, schedule: Q01DX001 (ip), vehicle: acetone); 0 of 6 (dose: 150.0 mg/kg/injection, schedule: Q01DX001 (ip), vehicle: acetone); 0 of 6 (dose: 300.0 mg/kg/injection, schedule: Q01DX001 (ip), vehicle: acetone).

As for `CN(CCN(C)Cc1ccccc1)Cc1ccccc1`, the survivor count is reported as 0 of 6 under setting [6] and 0 of 6 (dose: 400.0 mg/kg/injection, schedule: Q04DX003 (ip), vehicle: saline).

Turning to `Cc1ccc(S(=O)(=O)ON=C2c3ccccc3-c3ccccc32)cc1`, under setting [5], the T/C was 125 % of control. Moreover, the survivor count (dose: 400.0 mg/kg/injection, schedule: Q01DX009 (ip), vehicle: Klucel (hydroxypropylcellulose) (HPC)) is 6 of 6.

For the compound `COc1cc2cncc(CC(=O)c3ccc4c(c3)OCO4)c2cc1OC`, the survivor count under setting [4] was 6 of 6.

As to `Nc1ccc(N)cc1` (tested in a mixture with another compound), the survivor count reads like this: (dose: 200.0 mg/kg/injection, schedule: Q01DX009 (ip), vehicle: DMSO) 4 of 6; (dose: 400.0 mg/kg/injection, schedule: Q04DX003 (ip), vehicle: DMSO) 0 of 6.
